# The supplement of paper PMC6411743
# Protein sequences, listed by entry. Tags and fused reporters are not part of them. Lines headed by an entry give the natural chain unless they say otherwise; changes in a name come on top.
# UniProt Q9UDY8: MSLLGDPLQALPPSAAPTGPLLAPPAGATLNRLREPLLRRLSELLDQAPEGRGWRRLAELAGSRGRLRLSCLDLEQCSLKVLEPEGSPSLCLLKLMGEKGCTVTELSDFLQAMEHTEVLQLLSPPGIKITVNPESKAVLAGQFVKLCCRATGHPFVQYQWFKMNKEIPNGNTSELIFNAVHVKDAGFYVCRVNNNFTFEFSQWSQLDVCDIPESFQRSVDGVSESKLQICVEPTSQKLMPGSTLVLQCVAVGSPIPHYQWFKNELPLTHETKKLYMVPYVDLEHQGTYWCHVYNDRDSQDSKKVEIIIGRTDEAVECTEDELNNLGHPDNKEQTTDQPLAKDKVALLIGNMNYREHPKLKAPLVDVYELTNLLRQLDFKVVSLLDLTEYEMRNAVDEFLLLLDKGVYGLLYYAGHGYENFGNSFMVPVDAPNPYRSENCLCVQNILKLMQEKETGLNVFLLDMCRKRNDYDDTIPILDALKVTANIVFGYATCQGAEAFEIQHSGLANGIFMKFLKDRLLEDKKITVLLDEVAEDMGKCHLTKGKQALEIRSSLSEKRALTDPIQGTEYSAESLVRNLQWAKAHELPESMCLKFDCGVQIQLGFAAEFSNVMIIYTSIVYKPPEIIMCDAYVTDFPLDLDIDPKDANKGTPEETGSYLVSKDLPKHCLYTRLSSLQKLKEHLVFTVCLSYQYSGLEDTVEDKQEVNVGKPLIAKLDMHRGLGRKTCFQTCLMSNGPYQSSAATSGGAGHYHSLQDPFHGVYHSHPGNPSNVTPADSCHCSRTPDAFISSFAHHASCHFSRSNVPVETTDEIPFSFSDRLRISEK
# UniProt Q9UBD5: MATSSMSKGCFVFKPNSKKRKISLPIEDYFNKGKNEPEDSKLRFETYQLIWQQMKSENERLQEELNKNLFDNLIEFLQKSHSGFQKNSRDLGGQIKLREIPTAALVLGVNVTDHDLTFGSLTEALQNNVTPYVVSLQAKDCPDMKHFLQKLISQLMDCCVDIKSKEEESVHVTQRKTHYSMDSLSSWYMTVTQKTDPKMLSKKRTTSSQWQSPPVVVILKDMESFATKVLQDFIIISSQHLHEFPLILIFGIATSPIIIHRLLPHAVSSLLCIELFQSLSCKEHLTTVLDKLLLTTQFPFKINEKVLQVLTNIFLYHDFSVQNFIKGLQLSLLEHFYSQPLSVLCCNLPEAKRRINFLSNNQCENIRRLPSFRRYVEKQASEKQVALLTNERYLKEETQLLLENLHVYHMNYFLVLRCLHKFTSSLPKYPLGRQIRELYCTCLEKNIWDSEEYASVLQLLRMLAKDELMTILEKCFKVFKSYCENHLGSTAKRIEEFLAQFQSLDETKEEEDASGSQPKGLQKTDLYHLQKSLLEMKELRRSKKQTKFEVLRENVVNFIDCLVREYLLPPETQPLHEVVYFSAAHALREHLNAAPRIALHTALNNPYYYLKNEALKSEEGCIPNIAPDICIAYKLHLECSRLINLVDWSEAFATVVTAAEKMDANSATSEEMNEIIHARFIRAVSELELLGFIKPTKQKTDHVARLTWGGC
# UniProt Q9NX47: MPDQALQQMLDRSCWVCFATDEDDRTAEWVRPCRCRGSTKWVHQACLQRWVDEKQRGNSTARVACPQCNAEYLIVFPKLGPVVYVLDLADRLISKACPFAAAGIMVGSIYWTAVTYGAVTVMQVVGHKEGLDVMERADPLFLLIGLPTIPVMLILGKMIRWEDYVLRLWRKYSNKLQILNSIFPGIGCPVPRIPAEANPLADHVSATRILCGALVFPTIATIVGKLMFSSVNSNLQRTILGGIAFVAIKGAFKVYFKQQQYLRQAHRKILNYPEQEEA
# UniProt Q9UK59: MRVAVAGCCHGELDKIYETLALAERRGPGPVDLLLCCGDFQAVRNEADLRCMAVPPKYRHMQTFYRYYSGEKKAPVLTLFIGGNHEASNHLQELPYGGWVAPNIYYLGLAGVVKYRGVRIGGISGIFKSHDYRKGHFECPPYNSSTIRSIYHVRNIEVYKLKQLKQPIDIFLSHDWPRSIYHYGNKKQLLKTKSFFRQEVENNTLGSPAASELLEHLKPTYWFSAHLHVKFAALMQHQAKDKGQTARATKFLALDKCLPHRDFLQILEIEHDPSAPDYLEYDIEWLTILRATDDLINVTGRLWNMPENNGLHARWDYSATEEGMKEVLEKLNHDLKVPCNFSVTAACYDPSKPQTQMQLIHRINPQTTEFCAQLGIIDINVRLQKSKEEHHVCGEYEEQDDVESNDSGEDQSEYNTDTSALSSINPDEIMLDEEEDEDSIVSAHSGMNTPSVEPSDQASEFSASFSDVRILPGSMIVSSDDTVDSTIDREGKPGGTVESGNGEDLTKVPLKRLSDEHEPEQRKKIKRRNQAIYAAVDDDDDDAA
# ± gives the standard deviation of the averaged measurements. Some of the results follow.
# Compound: Nc1nc2c(ncn2[C@@H]2O[C@H](COP(=O)(O)OP(=O)(O)OP(=O)(O)O)[C@@H](O)[C@H]2O)c(=O)[nH]1 [guanosine triphosphate]
# Assay: NP40-soluble protein abundance relative to vehicle (solubility fold change) (ratio); higher = more soluble protein in presence of GTP
# Procedure: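 Solubility proteome profiling in Jurkat crude lysate. Lysate was treated with Mg-GTP (0.1-10 mM) for 10 min at room temperature and 3 min at 37 °C, then solubilised with 0.8% NP40 and benzonase, followed by ultracentrifugation. Proteins were quantified by TMT10 LC-MS/MS; the value is the NP40-soluble abundance relative to the NP40-processed vehicle, from 3 independent experiments.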
Target,NP40-soluble protein abundance (concentration: 0.1mM),NP40-soluble protein abundance (concentration: 0.5mM),NP40-soluble protein abundance (concentration: 1mM),NP40-soluble protein abundance (concentration: 2mM),NP40-soluble protein abundance (concentration: 4mM),NP40-soluble protein abundance (concentration: 6mM),NP40-soluble protein abundance (concentration: 8mM),NP40-soluble protein abundance (concentration: 10mM)
UniProt Q9UDY8 and related entries,1.05 ± 0.095,1.02 ± 0.073,0.947 ± 0.13,0.987 ± 0.052,0.994 ± 0.088,0.945 ± 0.073,0.9385 ± 0.0082,0.852 ± 0.066
UniProt Q9UBD5 and related entries,0.981 ± 0.061,1.06 ± 0.076,0.957 ± 0.092,1.04 ± 0.049,0.998 ± 0.069,1.04 ± 0.04,1.02 ± 0.1,1.07 ± 0.018
UniProt Q9NX47,0.989 ± 0.058,1.05 ± 0.099,0.964 ± 0.13,0.901 ± 0.052,0.947 ± 0.061,1.01 ± 0.11,0.8561 ± 0.0048,0.8842 ± 0.0023
LYAR (UniProt Q9NX58),1.05 ± 0.037,1.05 ± 0.1,1.08 ± 0.1,1.16 ± 0.077,1.14 ± 0.053,1.17 ± 0.068,1.17 ± 0.14,1.27 ± 0.14
DBR1 (UniProt Q9UK59),1.02 ± 0.048,1.11 ± 0.079,0.966 ± 0.053,1.01 ± 0.098,0.951 ± 0.057,0.966 ± 0.061,0.949 ± 0.044,0.93 ± 0.054
